# Among all 390,000 compounds or so, about 4,000 (1%) were called active. The inconclusive results got no clear call from the source; some entries with a clear call stand among them for comparison. Calls come from the whole dose curve; as a rule, active = well fitted inhibition curve with a large enough effect; inconclusive = small, poorly fitted or top-dose-only effect, or another doubt; inactive = no such curve, though single readings can be large or run the other way. Potencies of inconclusive entries are doubtful fits and often do not repeat.
# By UniProt entry, the sequences of proteins in these tests, tags left out. Where a name states a change or a piece, a line headed by the entry shows the natural chain unless it says otherwise.
# UniProt Q9UNA4: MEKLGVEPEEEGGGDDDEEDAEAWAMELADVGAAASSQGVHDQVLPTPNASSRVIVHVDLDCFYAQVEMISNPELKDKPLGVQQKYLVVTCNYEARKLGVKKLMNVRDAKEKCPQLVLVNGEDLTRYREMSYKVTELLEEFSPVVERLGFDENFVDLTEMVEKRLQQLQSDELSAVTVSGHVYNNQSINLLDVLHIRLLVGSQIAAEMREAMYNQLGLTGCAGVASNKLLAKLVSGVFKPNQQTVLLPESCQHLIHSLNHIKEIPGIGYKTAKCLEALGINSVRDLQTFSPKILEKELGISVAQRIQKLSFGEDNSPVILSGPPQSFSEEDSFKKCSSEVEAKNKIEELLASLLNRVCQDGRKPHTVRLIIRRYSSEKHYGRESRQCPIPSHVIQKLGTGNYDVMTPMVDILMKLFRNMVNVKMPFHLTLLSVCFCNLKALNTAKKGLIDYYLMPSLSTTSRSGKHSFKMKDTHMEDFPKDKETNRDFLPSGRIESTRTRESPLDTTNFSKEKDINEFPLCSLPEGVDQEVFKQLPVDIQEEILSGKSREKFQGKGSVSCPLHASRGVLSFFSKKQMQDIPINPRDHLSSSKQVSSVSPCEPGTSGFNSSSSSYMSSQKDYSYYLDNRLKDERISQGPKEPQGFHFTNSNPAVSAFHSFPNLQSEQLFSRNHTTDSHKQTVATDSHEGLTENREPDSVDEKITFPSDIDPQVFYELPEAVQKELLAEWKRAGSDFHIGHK
# Molecular target: DNA polymerase iota (Homo sapiens) (UniProt Q9UNA4)
# Assay: qHTS for Inhibitors of Polymerase Iota
# Conditions: Pol iota fluorescent replication assay, 10 min; series mostly up to 115 µM
# Procedure, shortened: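 Pol iota at 10 nM preincubated 15 min with compounds at room temperature; reaction started with fluorescent substrate, 50 nM final. Fluorescence read kinetically at 0 and 10 min; buffer-only wells as negative control.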
# Potency is the fitted concentration of half-maximal effect.
row,Structure (SMILES),Potency
1,Nc1c(N(Cc2ccco2)C(=O)COc2ccccc2F)c(=O)[nH]c(=O)n1Cc1ccccc1,"inconclusive: 39.8 µM [inhibitor, single point]"
2,COc1cccc(-c2coc3c(C)c4oc(=O)c(CCC(=O)O)c(C)c4cc23)c1,"inconclusive: 25.1 µM [inhibitor, single point]"
3,COCCCNC(NC(=O)c1ccc(C)cc1)C(Cl)(Cl)Cl (stereo not given),"inconclusive: 89.1 µM [inhibitor, partial curve, poor fit]"
4,Cc1ccc(CNC(=O)CCS(=O)(=O)c2ccc3c(c2)CC(C)N3C(=O)C2CC2)o1 (stereo not given),"inconclusive: 2.82 µM [inhibitor, partial curve, poor fit]"
5,COc1ccc(-c2c(C)nc3c(-c4ccc(F)cc4)cnn3c2N)cc1,"inconclusive: 20 µM [inhibitor, single point]"
6,COc1cc(-c2n[nH]c(=S)n2Cc2ccccc2)cc(OC)c1OC,inactive
7,CCCCCC(O)c1cccc(OCc2ccc3ccccc3n2)c1 (stereo not given),"inconclusive: 15.8 µM [inhibitor, partial curve, poor fit]"
8,COc1cc(NS(=O)(=O)c2cc(NC(C)=O)ccc2OC)c(OC)cc1NC(=O)c1ccccc1,"inconclusive: 50.1 µM [inhibitor, partial curve]"
9,CCOC(=O)C1CCN(S(=O)(=O)c2ccc3c(c2)NC(=O)C(C)C(=O)N3)CC1 (stereo not given),"inconclusive: 50.1 µM [inhibitor, single point]"
10,Cc1ccc(-c2nn(-c3ccccc3)c3[nH]c(=O)c(CNCc4ccccc4)cc23)cc1,inactive
11,CC(=O)c1cnn(-c2c(Cl)cc(Cl)cc2Cl)c1C,"inconclusive: 89.1 µM [inhibitor, partial curve, poor fit]"
12,O=c1ccn([C@@H]2O[C@H](CO)[C@@H](O)[C@H]2O)c(=O)[nH]1,"inconclusive: 89.1 µM [inhibitor, single point]"
13,COc1ccc(/C=C2\SC(=S)N(CCC(=O)N(CCO)c3ccccc3)C2=O)cc1OC,"inconclusive: 11.2 µM [inhibitor, partial curve, poor fit]"
14,Cc1cc(C)c(S(=O)(=O)n2cnc(C)c2)c(C)c1,inactive
15,Cc1nn2c3ccccc3nc2c2ccccc12,"inconclusive: 10 µM [inhibitor, partial curve, poor fit]"
16,O=C(Cn1cnc2c(nnn2-c2ccc(F)cc2)c1=O)NCc1ccco1,"inconclusive: 89.1 µM [inhibitor, partial curve]"
17,CC1=C(C(=O)Nc2ccccc2C)C(c2cccnc2)n2nc(SCc3ccccc3F)nc2N1 (stereo not given),inactive
18,CCC1=NN2C(=N)/C(=C\c3ccc(OCc4cc(=O)n5nc(CC)sc5n4)c(OC)c3)C(=O)N=C2S1,"inconclusive: 3.55 µM [inhibitor, full curve, poor fit]"
19,COc1cc(C2Nc3cccc4cccc(c34)N2)cc(OC)c1OC(C)=O,"inconclusive: 15.8 µM [inhibitor, partial curve, poor fit]"
20,O=C(/C=C(\O)c1ccccc1)C(=O)NNC(=O)c1ccccc1,inactive

row,Structure (SMILES),Potency
1,CC(C)[C@H](NC(=O)N1CC(=O)Nc2ccccc21)C(=O)N1CCC[C@H]1C(=O)O,"inconclusive: 89.1 µM [inhibitor, single point]"
2,O=C(CCN1C(=O)c2ccccc2C1=O)Nc1cccnc1,"inconclusive: 15.8 µM [inhibitor, partial curve, poor fit]"
3,CN1/C(=C\C(=O)COC(=O)c2ccc(O)c(O)c2)C(C)(C)c2ccccc21,"inconclusive: 20 µM [inhibitor, full curve]"
4,O=C(O)CCC(=O)N1N=C(c2cccs2)CC1c1ccc(Br)cc1 (stereo not given),"inconclusive: 63.1 µM [inhibitor, single point]"
5,CCN(C(=O)COC(=O)/C=C/c1ccc(C)o1)c1c(N)n(Cc2ccccc2)c(=O)[nH]c1=O,inactive
6,CCc1ccc(OCC(=O)N(Cc2ccc(OC)cc2)C2CCS(=O)(=O)C2)cc1 (stereo not given),inactive
7,CCN1CCN(C(=O)c2ccc3c(c2)N(Cc2cccc(F)c2)C(=O)c2ccccc2S3)CC1,"inconclusive: 79.4 µM [inhibitor, single point]"
8,O=C(O)CSc1cc(C(=O)c2ccccc2O)cn2c(=O)c3c4c(sc3nc12)CCCC4,"inconclusive: 14.1 µM [inhibitor, full curve, poor fit]"
9,Cc1c(CC(=O)O)c(=O)oc2c(C)c3occ(-c4ccccc4)c3cc12,inactive
10,CCOC(=O)c1cc(-c2ccc(C)cc2)n(CCC(=O)Nc2ccc(OC)c(OC)c2)c1C,inactive
11,Cc1c(N2C(=O)/C(=C\c3ccccc3O)SC2=S)c(=O)n(-c2ccccc2)n1C,"inconclusive: 14.1 µM [inhibitor, partial curve, poor fit]"
12,Cc1nn(C)c(=O)n1-c1ccccc1,"inconclusive: 70.8 µM [inhibitor, partial curve]"
13,COc1cc(CNCCCN2CCOCC2)ccc1OCC(=O)Nc1cccc(C(F)(F)F)c1,"inconclusive: 50.1 µM [inhibitor, partial curve, poor fit]"
14,CCCN1C(=O)/C(=C/c2nc3ccccc3c(=O)[nH]2)c2cc(C)ccc21,"inconclusive: 31.6 µM [inhibitor, partial curve, poor fit]"
15,CCc1ccccc1NC(=O)CSc1ncc(S(=O)(=O)c2ccc(C(C)C)cc2)c(N)n1,"inconclusive: 89.1 µM [inhibitor, single point]"
16,CCC(=O)Nc1ccc(S(=O)(=O)Nc2ncccn2)cc1,inactive
17,O=C(O)C(Cc1ccccc1)n1cccc1 (stereo not given),inactive
18,NC(=O)CC1NC(=O)c2cc([N+](=O)[O-])cc(I)c2OCCC(C(N)=O)NC(=O)[C@@H]2CCCN2C1=O (stereo not given in full),"inconclusive: 10 µM [inhibitor, partial curve, poor fit]"
19,COc1ccc(-n2nnnc2SCC(=O)NC2CC2)cc1,inactive
20,CCc1cc(C(=O)N2CCN(S(=O)(=O)c3ccccc3F)CC2)sc1C,"inconclusive: 39.8 µM [inhibitor, partial curve, poor fit]"

# 7 entries already listed, ordered by molecular weight, rising:
row,Structure (SMILES),Potency
19,COc1ccc(-n2nnnc2SCC(=O)NC2CC2)cc1,inactive
9,Cc1c(CC(=O)O)c(=O)oc2c(C)c3occ(-c4ccccc4)c3cc12,inactive
6,CCc1ccc(OCC(=O)N(Cc2ccc(OC)cc2)C2CCS(=O)(=O)C2)cc1 (stereo not given),inactive
11,Cc1c(N2C(=O)/C(=C\c3ccccc3O)SC2=S)c(=O)n(-c2ccccc2)n1C,"inconclusive: 14.1 µM [inhibitor, partial curve, poor fit]"
5,CCN(C(=O)COC(=O)/C=C/c1ccc(C)o1)c1c(N)n(Cc2ccccc2)c(=O)[nH]c1=O,inactive
15,CCc1ccccc1NC(=O)CSc1ncc(S(=O)(=O)c2ccc(C(C)C)cc2)c(N)n1,"inconclusive: 89.1 µM [inhibitor, single point]"
7,CCN1CCN(C(=O)c2ccc3c(c2)N(Cc2cccc(F)c2)C(=O)c2ccccc2S3)CC1,"inconclusive: 79.4 µM [inhibitor, single point]"
